Measured values taken from paper PMC6039025.
These are yes or no findings as the source states them, for the method shown. Some binding calls cover weakened binding; strength is not graded here. Sequences can lack the tags named with a protein.

T1: Smc4-L1333I-L1335A, 3xStrepTagII-tagged (S. cerevisiae) (UniProt Q12267)
T1 sequence: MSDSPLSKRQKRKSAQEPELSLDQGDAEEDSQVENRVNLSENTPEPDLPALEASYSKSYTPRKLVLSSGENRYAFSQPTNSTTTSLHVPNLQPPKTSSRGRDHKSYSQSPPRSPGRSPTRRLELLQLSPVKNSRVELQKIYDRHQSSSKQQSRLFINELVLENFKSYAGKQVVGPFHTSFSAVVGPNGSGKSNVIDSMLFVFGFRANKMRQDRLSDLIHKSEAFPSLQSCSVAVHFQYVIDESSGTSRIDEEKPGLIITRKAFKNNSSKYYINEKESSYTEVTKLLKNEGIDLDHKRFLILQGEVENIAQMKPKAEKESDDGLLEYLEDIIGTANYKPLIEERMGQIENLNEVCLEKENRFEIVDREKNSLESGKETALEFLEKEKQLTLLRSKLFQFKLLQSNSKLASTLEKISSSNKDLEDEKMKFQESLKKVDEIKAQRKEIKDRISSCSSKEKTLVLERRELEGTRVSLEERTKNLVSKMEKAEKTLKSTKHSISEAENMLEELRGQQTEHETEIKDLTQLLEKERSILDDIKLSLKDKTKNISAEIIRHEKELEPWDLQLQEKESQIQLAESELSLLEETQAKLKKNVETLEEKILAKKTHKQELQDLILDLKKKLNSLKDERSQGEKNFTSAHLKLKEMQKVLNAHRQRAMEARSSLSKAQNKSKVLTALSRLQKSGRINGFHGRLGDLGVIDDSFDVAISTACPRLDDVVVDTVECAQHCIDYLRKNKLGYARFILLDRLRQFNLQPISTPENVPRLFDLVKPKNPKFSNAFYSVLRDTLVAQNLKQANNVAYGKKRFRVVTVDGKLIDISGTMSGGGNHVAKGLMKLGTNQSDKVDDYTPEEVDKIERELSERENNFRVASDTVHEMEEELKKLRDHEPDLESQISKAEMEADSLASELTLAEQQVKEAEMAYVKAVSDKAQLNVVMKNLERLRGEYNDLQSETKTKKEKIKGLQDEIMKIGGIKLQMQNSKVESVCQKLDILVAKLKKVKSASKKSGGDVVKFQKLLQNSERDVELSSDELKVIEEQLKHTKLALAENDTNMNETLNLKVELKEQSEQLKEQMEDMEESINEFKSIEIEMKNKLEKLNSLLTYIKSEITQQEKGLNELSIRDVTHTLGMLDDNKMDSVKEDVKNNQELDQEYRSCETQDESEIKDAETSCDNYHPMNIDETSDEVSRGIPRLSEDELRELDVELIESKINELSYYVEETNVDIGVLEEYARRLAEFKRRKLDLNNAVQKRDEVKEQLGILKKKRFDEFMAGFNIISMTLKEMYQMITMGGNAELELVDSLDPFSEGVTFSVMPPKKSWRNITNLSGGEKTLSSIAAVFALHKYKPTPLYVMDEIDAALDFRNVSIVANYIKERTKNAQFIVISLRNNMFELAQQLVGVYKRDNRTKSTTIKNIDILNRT


Molecular target: T1, Smc4-L1333I-L1335A, 3xStrepTagII-tagged (S. cerevisiae)
Assay: tandem affinity co-purification (Ni-NTA, Strep-Trap) + SEC; five condensin subunits co-overexpressed in yeast; extract in 500 mM NaCl, 10 mM Tris-HCl pH 8.0, 10% glycerol; Ni-NTA (His tags on Brn1 and Ycg1), then Strep-Trap HP (3xStrepTagII on Smc4), then Superose 6 10/300 in 200 mM NaCl, 50 mM Tris-HCl pH 8.0; subunits seen by SDS-PAGE and Coomassie staining

Row | binding | Binder
1 | binds | Ycs4 (protein, UniProt Q06156 1-1176) MSGFSLSEYLTKFQTTDRESYPRLQDPSRELNVIIDQLAVSPEQIDASPDSLEALIDLCHDFPHLTPKLQTQLSYLISSSLSNLSKDIKANLSSNVNFTEIGGLIPQWKRHLEEYGYLIQVLLTFLQDELHKVSSQSTNLNRSAKNSKNDSANVELFKRDCNQMENLLESITKLLEINLSKIFQTTPEKDLFIGLFTRPLFVLLEIEPVTKVSSLKMFIQRILAMCVKNHGQSSSIQSSLMTNLTYFLHLSVFNAELLKLLNDEYNYPQLTEDILKEISTRVFNAKDTTGPKAISNFLIKLSELSPGIMLRQMNLVITLLNNSSITLRCSVVEACGNIVAELAQDPQTMEHYKQQIAVLIELLEERFQDSNPYVRTKAIQGCSKICDLSSKFNKSKAKFTSLAVRSLQDRSSLVRRNSVKLLSKLLLKHPFKAIHGSQLRLSEWEEYLKGSESQLNSTLKKVESQETLNDTIERSLIEEEVEQDEGQCRTELEGSFNKSAELSRIENEVENINATNTSVLMKLKLMIVYYKDAISFIKEIHKSIELISNLLFSKNRNEVLESMDFLVLADAFDIELSEFGIKKMLHLVWMKGTNDEGTSISVHLIECYKQLFLTAPDSCNMQEKAAHIAKNLINLSIGASIADLASLEQLLGMMYEQKLIDQHVINILWAIYNSASKASMQKEQNVNNRDSEKGFSKEQIHGSIIILGMLSLADNEIALKGLESLLNIGLGAVGLKDLTLCRYSCLALERMVPKRSTIITKAINQELEDVAVKKLYAIIINYTKDNEYYPMCEQALSALFTISSKPDILATDLIREKTMMTFGKPEEEDSILSLEQSSRVVSLSQLLFIVGQVAIKTLVYLEKCEAEFKKRKIEAETRNGKVKNQGADVTNTTQDNGGDKELEMIGGTNEDDFTDAIQFVKENELLFGEKSILGKFCPIVEEIVSNSSRFSDPMLQRTATLCLEKLMCLSSKYCEKSLPLLITVMEKSPDPTIRSNAVLGLGDMAVCFNNLVDENTDYLYRRLHDENLMVQRTCLMTVTFLILAGQVKVKGQLGEMAKCLDNPDQGISDMCRLFFTELASKDNAIYNGFIDIFSNLSSDDLLGKESFKKIIKFLLTFIDKERHQKQLNEKLVGRLRKCETQKQWDDIAFVLNNLPYKNEDVTALLEQGFKVVSAKE
2 | binds | Ycg1-3xFLAG-9xHIS (protein, UniProt Q06680 1-1035) MQDPDGIDINTKIFNSVAEVFQKAQGSYAGHRKHIAVLKKIQSKAVEQGYEDAFNFWFDKLVTKILPLKKNEIIGDRIVKLVAAFIASLERELILAKKQNYKLTNDEEGIFSRFVDQFIRHVLRGVESPDKNVRFRVLQLLAVIMDNIGEIDESLFNLLILSLNKRIYDREPTVRIQAVFCLTKFQDEEQTEHLTELSDNEENFEATRTLVASIQNDPSAEVRRAAMLNLINDNNTRPYILERARDVNIVNRRLVYSRILKSMGRKCFDDIEPHIFDQLIEWGLEDRELSVRNACKRLIAHDWLNALDGDLIELLEKLDVSRSSVCVKAIEALFQSRPDILSKIKFPESIWKDFTVEIAFLFRAIYLYCLDNNITEMLEENFPEASKLSEHLNHYILLRYHHNDISNDSQSHFDYNTLEFIIEQLSIAAERYDYSDEVGRRSMLTVVRNMLALTTLSEPLIKIGIRVMKSLSINEKDFVTMAIEIINDIRDDDIEKQEQEEKIKSKKINRRNETSVDEEDENGTHNDEVNEDEEDDNISSFHSAVENLVQGNGNVSESDIINNLPPEKEASSATIVLCLTRSSYMLELVNTPLTENILIASLMDTLITPAVRNTAPNIRELGVKNLGLCCLLDVKLAIDNMYILGMCVSKGNASLKYIALQVIVDIFSVHGNTVVDGEGKVDSISLHKIFYKVLKNNGLPECQVIAAEGLCKLFLADVFTDDDLFETLVLSYFSPINSSNEALVQAFAFCIPVYCFSHPAHQQRMSRTAADILLRLCVLWDDLQSSVIPEVDREAMLKPNIIFQQLLFWTDPRNLVNQTGSTKKDTVQLTFLIDVLKIYAQIEKKEIKKMIITNINAIFLSSEQDYSTLKELLEYSDDIAENDNLDNVSKNALDKLRNNLNSLIEEINERSETQTKDENNTANDQYSSILGNSFNKSSNDTIEHAADITDGNNTELTKTTVNISAVDNTTEQSNSRKRTRSEAEQIDTSKNLENMSIQDTSTVAKNVSFVLPDEKSDAMSIDEEDKDSESFSEVC
3 | binds | Brn1-3xHA-12xHIS (protein, UniProt P38170 1-754) MTTQLRYENNDDDERVEYNLFTNRSTMMANFEEWIKMATDNKINSRNSWNFALIDYFYDLDVLKDGENNINFQKASATLDGCIKIYSSRVDSVTTETGKLLSGLAQRKTNGASNGDDSNGGNGEGLGGDSDEANIEIDPLTGMPISNDPDVNNTRRRVYNRVLETTLVEFETIKMKELDQELIIDPLFKKALVDFDEGGAKSLLLNTLNIDNTARVIFDASIKDTQNVGQGKLQRKEEELIERDSLVDDENEPSQSLISTRNDSTVNDSVISAPSMEDEILSLGMDFIKFDQIAVCEISGSIEQLRNVVEDINQAKDFIENVNNRFDNFLTEEELQAAVPDNAEDDSDGFDMGMQQELCYPDENHDNTSHDEQDDDNVNSTTGSIFEKDLMAYFDENLNRNWRGREHWKVRNFKKANLVNKESDLLEETRTTIGDTTDKNTTDDKSMDTKKKHKQKKVLEIDFFKTDDSFEDKVFASKGRTKIDMPIKNRKNDTHYLLPDDFHFSTDRITRLFIKPGQKMSLFSHRKHTRGDVSSGLFEKSTVSANHSNNDIPTIADEHFWADNYERKEQEEKEKEQSKEVGDVVGGALDNPFEDDMDGVDFNQAFEGTDDNEEASVKLDLQDDEDHKFPIRENKVTYSRVSKKVDVRRLKKNVWRSINNLIQEHDSRKNREQSSNDSETHTEDESTKELKFSDIIQGISKMYSDDTLKDISTSFCFICLLHLANEHGLQITHTENYNDLIVNYEDLATTQAAS
4 | binds | Smc2 (protein, UniProt P38989 1-1170) MKVEELIIDGFKSYATRTVITDWDPQFNAITGLNGSGKSNILDAICFVLGIASMSTVRASSLQDLIYKRGQAGVTKASVTIVFDNTDKSNSPIGFTNSPQISVTRQVVLGGTSKYLINGHRAPQQSVLQLFQSVQLNINNPNFLIMQGKITKVLNMKPSEILSLIEEAAGTKMFEDRREKAERTMSKKETKLQENRTLLTEEIEPKLEKLRNEKRMFLEFQSTQTDLEKTERIVVSYEYYNIKHKHTSIRETLENGETRMKMLNEFVKKTSEEIDSLNEDVEEIKLQKEKELHKEGTISKLENKENGLLNEISRLKTSLSIKVENLNDTTEKSKALESEIASSSAKLIEKKSAYANTEKDYKMVQEQLSKQRDLYKRKEELVSTLTTGISSTGAADGGYNAQLAKAKTELNEVSLAIKKSSMKMELLKKELLTIEPKLKEATKDNELNVKHVKQCQETCDKLRARLVEYGFDPSRIKDLKQREDKLKSHYYQTCKNSEYLKRRVTNLEFNYTKPYPNFEASFVHGVVGQLFQIDNDNIRYATALQTCAGGRLFNVVVQDSQTATQLLERGRLRKRVTIIPLDKIYTRPISSQVLDLAKKIAPGKVELAINLIRFDESITKAMEFIFGNSLICEDPETAKKITFHPKIRARSITLQGDVYDPEGTLSGGSRNTSESLLVDIQKYNQIQKQIETIQADLNHVTEELQTQYATSQKTKTIQSDLNLSLHKLDLAKRNLDANPSSQIIARNEEILRDIGECENEIKTKQMSLKKCQEEVSTIEKDMKEYDSDKGSKLNELKKELKLLAKELEEQESESERKYDLFQNLELETEQLSSELDSNKTLLHNHLKSIESLKLENSDLEGKIRGVEDDLVTVQTELNEEKKRLMDIDDELNELETLIKKKQDEKKSSELELQKLVHDLNKYKSNTNNMEKIIEDLRQKHEFLEDFDLVRNIVKQNEGIDLDTYRERSKQLNEKFQELRKKVNPNIMNMIENVEKKEAALKTMIKTIEKDKMKIQETISKLNEYKRETLVKTWEKVTLDFGNIFADLLPNSFAKLVPCEGKDVTQGLEVKVKLGNIWKESLIELSGGQRSLIALSLIMALLQFRPAPMYILDEVDAALDLSHTQNIGHLIKTRFKGSQFIVVSLKEGMFANANRVFRTRFQDGTSVVSIM
